From PubChem BioAssay AID1347075 (National Center for Advancing Translational Sciences (NCATS), 2019)
In all, about 400,000 compounds went through this assay and about 5,500 (1.4%) were called active. The inconclusive results got no clear call from the source; some entries with a clear call stand among them for comparison. The call rests on the fitted dose curve; in most records, active means well fitted cell-killing curve with a large enough effect; inconclusive means small, poorly fitted or top-dose-only effect, or effect the other way; inactive means flat fitted curve, though single readings scatter. Where the call is inconclusive, the potency comes from a doubtful curve fit.

Assay: qHTS assay for MDR1-selective chemotherapeutics: Primary screen using the parental adenocarcinoma cell KB-3-1; further: nearly all actives have a fitted effect of over 60% in size
Settings: KB-3-1 viability, CellTiter-Glo ATP luminescence, 72 h; activity change, negative = cytotoxic: at 46.1 µM (top of the series)
Method in brief: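 KB-3-1 cells, DMEM (no phenol red) + 10% FBS; compound by pin transfer, 72 h, 37 °C. Readout: CellTiter-Glo luminescence after 10 min. Data normalized, curve-fitted.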
On the % scale 0 is the no-effect control and ±100 the full control effect; potency means the concentration at half of the fitted maximal effect.

Row | Compound | Potency | activity change, negative = cytotoxic
1 | COc1ccc(NC(=O)c2cc([N+](=O)[O-])ccc2N2CCCCC2)cc1OC | inactive | 
2 | COC(=O)[C@@]12CCCN1[C@H](c1ccc(-c3ccc(OC)cc3)c(OC)c1)[C@H]1C(=O)N(C)C(=O)[C@H]12 | inconclusive: 18.4 µM [cytotoxic, single point] | 
3 | COC(=O)c1cnn(-c2ccccc2)c1C(OC)OC | inconclusive: 1.84 µM [rising, full curve] | 
4 | CCOc1ccccc1OCCCCCc1c(C)n[nH]c1C | active: 20.6 µM | 
5 | COc1ccc(/C=N/NC(=S)NC2CCS(=O)(=O)C2)cc1OC (stereo not given) | inactive | 
6 | CC(C(=O)Nc1ccccc1)N(c1cccc(Cl)c1)S(C)(=O)=O (stereo not given) | inconclusive: 11.6 µM [rising, partial curve] | 
7 | O=C(N/N=C/c1cccc2ccccc12)c1cc2ccccc2o1 | inconclusive: 20.6 µM [cytotoxic, single point] | 
8 | COc1ccccc1-c1c(C)nn2c(N3CCC(C(N)=O)CC3)cc(C)nc12 | inconclusive: 6.51 µM [rising, full curve] | 
9 | CCc1ccc(NC(=O)C2CCCN2S(=O)(=O)c2cccc3nsnc23)cc1 (stereo not given) | inconclusive: 29.1 µM [cytotoxic, single point] | 
10 | CCc1ccccc1NC(=S)/N=C(\N)Nc1nc(C)c2cc(C)ccc2n1 | inconclusive: 20.6 µM [cytotoxic, partial curve, poor fit] | 
11 | CC(=O)c1cn(CCOc2ccccc2C)c2ccccc12 | inconclusive: 3.66 µM [cytotoxic, partial curve, poor fit] | 
12 | COc1cc(OC)cc(-n2nnnc2SCC(=O)NC2CCCC2)c1 | inactive | 
13 | CCOC(=O)c1ccc(NC(=O)NCc2cccnc2)cc1 | inactive | 
14 | Cc1ccc2c(C(=O)CCl)c(C)[nH]c2c1 | active: 13 µM | 
15 | COc1cc2c(cc1OC)C(C)N(C(=O)CCc1c[nH]c3ccccc13)CC2 (stereo not given) | inconclusive: 29.1 µM [cytotoxic, single point] | 
16 | S=C1NC2=C(CCC/C2=C\c2ccc(Cl)cc2)C(c2ccc(Cl)cc2)N1 (stereo not given) | inactive | 
17 | CCOc1cc(/C=N/NC(=O)N/N=C/c2ccc(O)c(OCC)c2)ccc1O | active: 6.51 µM | 
18 | CCOC(=O)C1CCC(CN(Cc2ccc(OC)cc2)S(=O)(=O)c2ccc(F)c(C(=O)Nc3cc(Cl)ccc3OC)c2)CC1 (stereo not given) |  | inconclusive: -17.1%
19 | CC1CC(=O)c2c(cc3c(-c4c(O)cc(O)c5c(O)c6c(cc45)OC(C)CC6=O)c(O)cc(O)c3c2O)O1 (stereo not given) | inconclusive: 29.1 µM [cytotoxic, single point] | 
20 | Cn1cc(-c2cc3n(n2)CCC(=O)N3CCCC(=O)NCc2ccccc2)c2ccccc21 | inactive | 
21 | COc1ccccc1Cc1c(-c2ccc(C#N)cc2)nc2c3ccccc3ccn12 | inconclusive: 29.1 µM [cytotoxic, single point] | 
22 | COc1cc2c(cc1OC)C(C)N(S(=O)(=O)c1cnc(Cl)c(Cl)c1)CC2 (stereo not given) | inconclusive: 29.1 µM [cytotoxic, single point] | 
23 | Cc1ccc(OC(F)F)c(NC(=O)Nc2cccc(C(F)(F)F)c2)c1 | inconclusive: 35.5 µM [cytotoxic, single point] | 
24 | Fc1cccc2sc(Nc3nnc(-c4ccccc4)o3)nc12 | inconclusive: 16.4 µM [cytotoxic, partial curve] | 

Row | Compound | Potency | activity change, negative = cytotoxic
25 | COc1ccc2c(c1)c(=O)c(C(=O)c1ccc(C)cc1)cn2CC(=O)Nc1ccc(F)cc1 | inconclusive: 9.2 µM [cytotoxic, partial curve] | 
26 | COc1ccc(C(=O)c2ccc(N(C)C)cc2)c2ccccc12 | active: 5.17 µM | 
27 | CCCc1nc2c3ccccc3ccn2c1Cc1ccccc1 | inactive | 
28 | COc1cccc(OCCn2cc(C(C)=O)c3ccccc32)c1 | inconclusive: 1.3 µM [cytotoxic, partial curve] | 
29 | COC(=O)NCC(c1ccco1)N1CCN(c2ccc(F)cc2)CC1 (stereo not given) | inconclusive: 5.17 µM [rising, partial curve, poor fit] | 
30 | CCCN1CCC(=NNc2ccc(S(=O)(=O)N(CC)CC)cc2[N+](=O)[O-])CC1 | inconclusive: 20.6 µM [cytotoxic, partial curve, poor fit] | 
31 | Oc1ccc(C2=Nn3c(nnc3-c3ccco3)SC2)cc1O | inconclusive: 11.6 µM [cytotoxic, partial curve] | 
32 | Cc1nc2sccn2c(=O)c1S(=O)(=O)Nc1cccc(Cl)c1C | inconclusive: 29.1 µM [cytotoxic, single point] | 
33 | COc1cc(C(=O)Nc2ccc(N3CCOCC3)cc2)ccc1OCc1c(C)noc1C | inconclusive: 5.8 µM [cytotoxic, partial curve] | 
34 | COc1ccc(C2(c3ccc(OC)cc3)NC(=O)N(CC(=O)Nc3ccccc3C)C2=O)cc1 | inconclusive: 14.6 µM [cytotoxic, partial curve] | 
35 | C[C@H]1CN([C@@H](C)CO)S(=O)(=O)c2ccc(Br)cc2O[C@H]1CN(C)Cc1ccccc1 | inactive | 
36 | COc1ccc(-c2coc3c(C(=O)NCc4ccc(F)c(F)c4)cccc23)c(C)c1 | inactive | 
37 | O=C1Nc2cc(C(=O)NCC3CCCO3)ccc2S/C1=C/c1ccccc1F (stereo not given) | inconclusive: 20.6 µM [cytotoxic, single point] | 
38 | CN1OC[C@@H]2CN(C(=O)c3ccc(-c4ccccc4)cc3)[C@H](c3ccc(-c4cccc(F)c4)cc3)C[C@@H]21 |  | inconclusive: -15.2%
39 | COc1ccc(C(=O)C2CCN(C(=O)c3ccco3)CC2)cc1 | inactive | 
40 | COc1ccc(NC(=O)Cc2nnc(SCC(=O)Nc3ccccc3)n2C)cc1 | inactive | 
41 | CN(C)c1ccc(CNC(=O)C2CCN(C(=O)c3ccc(-n4ccc5ccccc54)s3)CC2)cc1 | inactive | 
42 | O=C(COC(=O)c1ccc(NS(=O)(=O)c2cccs2)cc1O)Nc1nc2ccccc2s1 | inconclusive: 18.4 µM [rising, partial curve, poor fit] | 
43 | O=c1[nH]c(CCl)nc2cc(-c3ccc(F)cc3)sc12 | inconclusive: 16.4 µM [cytotoxic, single point] | 
44 | Cc1cc(N2C(=O)C(O)=C(C(=O)c3ccc(C)o3)C2c2cccc(Cl)c2)no1 (stereo not given) | inconclusive: 18.4 µM [cytotoxic, partial curve, poor fit] | 
45 | COc1ccnc(Oc2ccc(F)cc2)c1C#N | inactive | 
46 | CCCCCC1CCC(C(=O)N2CCOCC2)CC1 (stereo not given) | inactive | 
47 | FC(F)Oc1ccc(NC(=S)N2CCN(Cc3ccccc3)CC2)cc1 | inconclusive: 9.2 µM [cytotoxic, partial curve] | 
48 | O=C(NNC(=O)C1CCN(S(=O)(=O)c2c(Cl)cccc2Cl)CC1)c1ccccc1O | inconclusive: 16.4 µM [cytotoxic, single point] | 

Row | Compound | Potency | activity change, negative = cytotoxic
49 | COc1cc2c(NC3CCN(C(C)C)CC3)nc(N3CCCN(C)CC3)nc2cc1OCCCN1CCCC1 | inconclusive: 1.3 µM [cytotoxic, full curve, poor fit] | 
50 | O=C(Cn1cnc2c(OCc3ccccc3)ncnc21)NCc1ccccn1 | inactive | 
51 | Cc1nn(-c2cccc(Cl)c2)c(Cl)c1/C=N/NC(=O)c1cccs1 | inconclusive: 29.1 µM [cytotoxic, single point] | 
52 | CCCc1ccc(C(=O)NNc2cccc(C)c2)cc1 | inconclusive: 16.4 µM [cytotoxic, single point] | 
53 | CCOc1cccc(/C=N/NC(=S)Nc2cc(S(=O)(=O)N3CCOCC3)ccc2N2CCOCC2)c1O | inconclusive: 3.26 µM [cytotoxic, full curve] | 
54 | CC(C)(C)c1cnnn1-c1ccc(C=O)cc1 | inactive | 
55 | COC(=O)c1ccccc1-n1cccc1C(=O)NP(=O)(N1CCOCC1)N1CCOCC1 | inconclusive: 18.4 µM [rising, partial curve, poor fit] | 
56 | Cc1cccc(N2CCN(C(=O)c3ccc4c(c3)CCN4S(=O)(=O)c3ccccc3)CC2)c1C | active: 23.1 µM | 
57 | O=C1NC2(CCCCC2)C(=O)N1CC(=O)N1CCc2ccccc21 | inactive | 
58 | CC(C)(C)Nc1nc(SCc2ccccc2)nc(N2CCOCC2)n1 | inconclusive: 9.2 µM [cytotoxic, partial curve] | 
59 | COc1ccc(O)c(/C=N/NC(=O)CSc2nnc(C)n2-c2ccccc2)c1 | inconclusive: 20.6 µM [cytotoxic, single point] | 
60 | CC(C)C[C@H]1CNC(=S)N1CC1CCN(CCCC2CCCCC2)CC1 | inactive | 
61 | Cc1cc2[nH]c3ccccc3c2c(C)n1 | inconclusive: 29.1 µM [cytotoxic, single point] | 
62 | O=C1c2ccccc2C(Nc2ccc(-c3nc4ccccc4[nH]3)cc2)N1Cc1ccco1 (stereo not given) |  | inconclusive: 0%
63 | Cc1c(N/N=C(\C#N)C(=O)c2ccc(Cl)cc2)c(=O)n(-c2ccccc2)n1C | active: 3.26 µM | 
64 | CCc1ccc(S(=O)(=O)c2nnn3c2nc(NCCC(C)C)c2cc(Cl)ccc23)cc1 | inactive | 
65 | COc1cc(-c2onc3ccc(Br)cc23)cc(OC)c1OC | active: 5.17 µM | 
66 | COc1ccc(S(=O)(=O)Nc2cccc(N(C)S(C)(=O)=O)c2)cc1C | inconclusive: 29.1 µM [cytotoxic, single point] | 
67 | CCOC(=O)c1cc(OC(=O)c2cc(Cl)ccc2OC)n(-c2ccccc2)n1 | inactive | 
68 | C/C(=N/NS(=O)(=O)c1cc(C)ccc1C)c1c[nH]c2ccccc12 | inconclusive: 23.1 µM [cytotoxic, single point] | 
69 | CCCN(CCC)S(=O)(=O)c1ccc(C(=O)N2CCn3c4c(c5cc(C)ccc53)CCCC42)cc1 (stereo not given) | inactive | 
70 | CCCCC1(Cc2ccc([N+](=O)[O-])cc2)C(=O)N(c2ccccc2)N(c2ccccc2)C1=O | inconclusive: 20.6 µM [cytotoxic, single point] | 

Quoted from the listing:
Entry for CCOc1ccccc1OCCCCCc1c(C)n[nH]c1C under Potency: active: 20.6 µM
Entry for COc1ccc(C2(c3ccc(OC)cc3)NC(=O)N(CC(=O)Nc3ccccc3C)C2=O)cc1 under Potency: inconclusive: 14.6 µM [cytotoxic, partial curve]
Entry for COc1ccnc(Oc2ccc(F)cc2)c1C#N under Potency: inactive
Entry for CC(C(=O)Nc1ccccc1)N(c1cccc(Cl)c1)S(C)(=O)=O (stereo not given) under Potency: inconclusive: 11.6 µM [rising, partial curve]
